In patent US20150362496A1:
Results are given in words; binding and its absence hold for the method and conditions named.

By UniProt entry, the sequences of proteins in these tests, tags left out. Where a name states a change or a piece, a line headed by the entry shows the natural chain unless it says otherwise.
UniProt P20908: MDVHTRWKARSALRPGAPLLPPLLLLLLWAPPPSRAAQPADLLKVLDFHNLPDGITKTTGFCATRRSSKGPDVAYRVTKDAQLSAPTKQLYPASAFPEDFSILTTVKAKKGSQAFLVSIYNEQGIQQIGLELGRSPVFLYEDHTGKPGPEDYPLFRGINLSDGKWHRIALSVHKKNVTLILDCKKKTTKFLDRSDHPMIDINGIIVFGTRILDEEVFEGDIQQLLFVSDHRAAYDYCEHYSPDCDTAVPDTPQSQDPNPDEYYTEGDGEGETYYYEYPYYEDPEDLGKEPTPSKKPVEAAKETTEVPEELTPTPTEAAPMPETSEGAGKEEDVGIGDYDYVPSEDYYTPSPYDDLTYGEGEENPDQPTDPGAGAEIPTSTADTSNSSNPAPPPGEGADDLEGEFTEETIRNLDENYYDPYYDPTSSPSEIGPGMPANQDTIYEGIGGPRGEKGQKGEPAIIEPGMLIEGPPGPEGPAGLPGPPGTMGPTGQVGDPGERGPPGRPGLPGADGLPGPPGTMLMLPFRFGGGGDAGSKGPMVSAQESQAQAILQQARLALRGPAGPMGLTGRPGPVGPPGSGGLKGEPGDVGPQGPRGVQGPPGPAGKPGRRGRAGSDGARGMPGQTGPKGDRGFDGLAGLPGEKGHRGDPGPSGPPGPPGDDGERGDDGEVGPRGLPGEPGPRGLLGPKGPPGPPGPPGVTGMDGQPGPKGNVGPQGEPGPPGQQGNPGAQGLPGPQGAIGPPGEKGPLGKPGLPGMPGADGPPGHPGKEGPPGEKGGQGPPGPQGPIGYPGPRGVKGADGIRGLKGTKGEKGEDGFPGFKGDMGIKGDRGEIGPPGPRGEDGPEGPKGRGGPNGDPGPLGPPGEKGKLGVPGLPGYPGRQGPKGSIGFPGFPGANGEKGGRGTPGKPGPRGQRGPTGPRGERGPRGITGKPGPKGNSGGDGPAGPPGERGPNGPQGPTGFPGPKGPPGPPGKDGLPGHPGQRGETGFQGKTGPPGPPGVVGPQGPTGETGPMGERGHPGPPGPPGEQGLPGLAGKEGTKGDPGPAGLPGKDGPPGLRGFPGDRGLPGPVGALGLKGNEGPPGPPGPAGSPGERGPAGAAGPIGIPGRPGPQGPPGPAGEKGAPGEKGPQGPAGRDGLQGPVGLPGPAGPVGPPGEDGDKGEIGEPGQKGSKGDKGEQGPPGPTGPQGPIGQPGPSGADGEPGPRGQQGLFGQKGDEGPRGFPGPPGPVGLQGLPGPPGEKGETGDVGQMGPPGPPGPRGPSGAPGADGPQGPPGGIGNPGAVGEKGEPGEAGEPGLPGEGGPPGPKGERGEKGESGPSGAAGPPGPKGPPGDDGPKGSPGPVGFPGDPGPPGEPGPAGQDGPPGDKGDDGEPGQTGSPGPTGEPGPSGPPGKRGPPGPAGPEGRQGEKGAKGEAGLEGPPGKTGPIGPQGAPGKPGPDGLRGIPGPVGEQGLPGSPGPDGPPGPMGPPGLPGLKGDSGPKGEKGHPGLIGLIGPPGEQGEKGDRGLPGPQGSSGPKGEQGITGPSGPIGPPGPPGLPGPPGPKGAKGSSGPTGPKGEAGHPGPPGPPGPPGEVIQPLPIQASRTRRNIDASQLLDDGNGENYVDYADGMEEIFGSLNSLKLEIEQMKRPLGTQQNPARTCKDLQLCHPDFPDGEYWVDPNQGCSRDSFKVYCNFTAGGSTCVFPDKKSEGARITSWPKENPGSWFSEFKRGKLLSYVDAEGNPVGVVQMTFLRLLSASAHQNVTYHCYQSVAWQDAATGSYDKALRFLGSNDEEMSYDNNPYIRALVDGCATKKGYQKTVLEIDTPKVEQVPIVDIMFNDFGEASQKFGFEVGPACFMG

Molecular target: recombinant proCOL5A1 (UniProt P20908)
Test: Western blot on recombinant proteins

B1: 1E8.33 monoclonal antibody (antibody, V domains shown)
VH: EVQLQESGPELVKTGSSVKISCKASGYSFTGYYMHWVKQSQGKSLEWIGYINCYNGATSYNRNFKGKATFTVDTSSSTAYMQFNSLTSGDSAVYYCAIWDYEFHVMDYWGQRTSLTVSS
VL: ENVLTQSPAIMSASLGEKVTMSCRASSSVNYMYWYQQKSDASPKLWIYYTSNLAPGVPARFSGSGSGNSYSLTISSMEGEDADTYYCQQFTSSPWTFGGGTKLEIK
  binding: no binding
